# Measured values published in the supplement of paper PMC10032668.
# Sequences of proteins named here, by UniProt entry; tags and fusion partners are left off.
# TUBB8, Q3ZCM7, UniProt Q3ZCM7, whole entry: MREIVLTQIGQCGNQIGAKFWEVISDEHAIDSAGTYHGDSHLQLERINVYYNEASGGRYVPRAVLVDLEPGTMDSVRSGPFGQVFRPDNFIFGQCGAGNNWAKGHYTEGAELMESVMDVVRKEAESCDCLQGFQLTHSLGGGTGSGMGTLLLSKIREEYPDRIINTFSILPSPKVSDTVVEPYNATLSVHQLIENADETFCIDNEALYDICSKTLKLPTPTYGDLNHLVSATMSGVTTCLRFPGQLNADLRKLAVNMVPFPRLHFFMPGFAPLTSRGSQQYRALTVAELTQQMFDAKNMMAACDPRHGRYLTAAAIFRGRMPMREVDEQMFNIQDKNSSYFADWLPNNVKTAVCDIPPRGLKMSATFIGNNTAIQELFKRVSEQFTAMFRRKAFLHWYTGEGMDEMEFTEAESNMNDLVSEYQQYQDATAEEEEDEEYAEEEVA
# RGPD5, Q99666, UniProt Q99666, whole entry: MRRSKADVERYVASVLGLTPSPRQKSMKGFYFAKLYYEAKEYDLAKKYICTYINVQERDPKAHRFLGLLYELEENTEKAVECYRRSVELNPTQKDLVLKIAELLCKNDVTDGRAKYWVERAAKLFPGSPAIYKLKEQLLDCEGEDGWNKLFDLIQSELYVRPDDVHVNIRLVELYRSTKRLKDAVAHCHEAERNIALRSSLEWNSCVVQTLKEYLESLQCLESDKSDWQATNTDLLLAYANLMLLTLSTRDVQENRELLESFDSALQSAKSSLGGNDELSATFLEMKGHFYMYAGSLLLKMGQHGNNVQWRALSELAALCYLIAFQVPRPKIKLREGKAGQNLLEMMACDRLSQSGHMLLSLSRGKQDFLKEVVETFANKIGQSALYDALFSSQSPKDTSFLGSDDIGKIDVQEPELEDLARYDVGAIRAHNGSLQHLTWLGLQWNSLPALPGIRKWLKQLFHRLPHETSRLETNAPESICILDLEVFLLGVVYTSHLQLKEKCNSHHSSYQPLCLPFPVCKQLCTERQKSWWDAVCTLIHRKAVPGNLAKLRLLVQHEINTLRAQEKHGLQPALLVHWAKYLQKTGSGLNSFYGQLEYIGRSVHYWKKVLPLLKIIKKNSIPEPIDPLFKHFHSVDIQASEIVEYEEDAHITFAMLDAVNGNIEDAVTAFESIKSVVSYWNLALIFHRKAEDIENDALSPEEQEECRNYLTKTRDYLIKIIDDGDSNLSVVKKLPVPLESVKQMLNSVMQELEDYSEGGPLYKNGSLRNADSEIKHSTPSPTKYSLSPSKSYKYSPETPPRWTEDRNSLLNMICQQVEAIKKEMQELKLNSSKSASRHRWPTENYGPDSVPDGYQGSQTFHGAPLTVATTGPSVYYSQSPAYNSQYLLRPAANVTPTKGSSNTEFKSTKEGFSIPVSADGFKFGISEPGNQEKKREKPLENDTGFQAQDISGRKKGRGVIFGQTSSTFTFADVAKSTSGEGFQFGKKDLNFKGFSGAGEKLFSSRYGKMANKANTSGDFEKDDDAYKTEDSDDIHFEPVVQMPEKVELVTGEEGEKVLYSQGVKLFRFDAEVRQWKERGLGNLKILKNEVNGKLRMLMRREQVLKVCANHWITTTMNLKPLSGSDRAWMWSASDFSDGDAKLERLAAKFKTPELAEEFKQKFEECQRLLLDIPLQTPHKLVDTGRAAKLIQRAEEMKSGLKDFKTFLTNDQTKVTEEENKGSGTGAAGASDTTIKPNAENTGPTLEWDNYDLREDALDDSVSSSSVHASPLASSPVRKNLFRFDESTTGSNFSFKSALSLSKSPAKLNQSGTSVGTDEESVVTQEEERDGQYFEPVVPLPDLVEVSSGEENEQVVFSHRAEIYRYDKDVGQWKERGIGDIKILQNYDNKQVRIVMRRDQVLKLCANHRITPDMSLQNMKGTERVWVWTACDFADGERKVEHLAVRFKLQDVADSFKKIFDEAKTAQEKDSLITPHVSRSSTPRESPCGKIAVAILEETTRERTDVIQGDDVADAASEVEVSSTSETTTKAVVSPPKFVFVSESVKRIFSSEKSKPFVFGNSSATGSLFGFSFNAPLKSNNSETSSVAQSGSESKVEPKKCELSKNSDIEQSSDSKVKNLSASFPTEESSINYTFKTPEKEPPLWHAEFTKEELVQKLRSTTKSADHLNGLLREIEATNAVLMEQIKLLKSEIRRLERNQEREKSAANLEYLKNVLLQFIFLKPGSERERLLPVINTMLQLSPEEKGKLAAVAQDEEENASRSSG
# SRPK1, Q96SB4, UniProt Q96SB4, whole entry: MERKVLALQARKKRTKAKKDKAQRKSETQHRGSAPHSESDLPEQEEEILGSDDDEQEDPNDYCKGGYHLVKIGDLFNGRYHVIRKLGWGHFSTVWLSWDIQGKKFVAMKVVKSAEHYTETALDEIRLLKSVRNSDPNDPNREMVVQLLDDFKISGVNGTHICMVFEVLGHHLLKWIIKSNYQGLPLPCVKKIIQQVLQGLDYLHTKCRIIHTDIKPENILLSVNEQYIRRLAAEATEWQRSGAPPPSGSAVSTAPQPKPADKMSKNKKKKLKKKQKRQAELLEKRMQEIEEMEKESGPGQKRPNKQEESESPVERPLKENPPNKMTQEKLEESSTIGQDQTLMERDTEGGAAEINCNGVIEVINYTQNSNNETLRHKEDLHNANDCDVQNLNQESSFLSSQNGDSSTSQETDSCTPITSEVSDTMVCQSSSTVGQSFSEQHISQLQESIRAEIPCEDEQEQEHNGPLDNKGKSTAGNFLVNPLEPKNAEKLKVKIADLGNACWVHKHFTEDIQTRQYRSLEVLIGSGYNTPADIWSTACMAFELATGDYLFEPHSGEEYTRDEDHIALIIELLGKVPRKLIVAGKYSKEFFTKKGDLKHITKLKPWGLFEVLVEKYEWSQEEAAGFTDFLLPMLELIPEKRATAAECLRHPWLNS
# The other results are listed elsewhere or left out. Only hits are listed; about a third recur on repeated control peptides.
# B1: MRPL33 (peptide)
# chain: VKQRVLFVEKKKIRS
# B2: LINC00881_2 (peptide)
# chain: AFPCAALGETHTDRG
# B3: MTLN (peptide)
# chain: RLRRRYLDWRKRRLQ
# B4: TUG1 (peptide)
# chain: GEAAAAAAAGFGAAG
# B5: C5orf56 (peptide)
# chain: ASRETRKWTPWLLES
# B6: TRDN-AS1_2 (peptide)
# chain: PQGNHKVLYKERYSS
# B7: LINC00881_2 (peptide)
# chain: DRGSGMTGKGGNGFC
# B8: PEX2 (peptide)
# chain: HCHSYRLSSLEGAAG
# Columns and labels:
# Assay in all cases: PRISMA enrichment of interactor (LFQ) in peptide spot vs all other peptide spots (log2 fold change); higher = stronger / more specific binding of the interactor to the peptide
# CYB5R3, P00387 = target: CYB5R3, P00387
# Method: (§1)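 PRISMA: 15-aa overlapping tiles (offset 8 aa) of 60 microproteins, plus SOS1/GLUT1 control peptides, were spot-synthesized on cellulose membranes in triplicate. Membranes were incubated with benzonase-treated HEK293T lysate, and bound proteins were identified by LC-MS/MS with LFQ. Enrichment is the log2 fold change of each protein in one spot versus all other spots. Only interactors passing the significance cutoff are listed.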
# ECD, O95905 = target: ECD, O95905
# Method: as §1
# FRYL, O94915 = target: FRYL, O94915
# Method: as §1
# PRDX2, P32119 = target: PRDX2, P32119
# Method: as §1
# CST4, P01036 = target: CST4, P01036
# Method: as §1
# LSM14A, Q8ND56 = target: LSM14A, Q8ND56
# Method: as §1
# MAP4K4, O95819 = target: MAP4K4, O95819
# Method: as §1
# MGST1, P10620 = target: MGST1, P10620
# Method: as §1
# MRPS18B, Q9Y676 = target: MRPS18B, Q9Y676
# Method: as §1
# NUB1, Q9Y5A7 = target: NUB1, Q9Y5A7
# Method: as §1
# NUBP2, Q9Y5Y2 = target: NUBP2, Q9Y5Y2
# Method: as §1
# POLR2B, P30876 = target: POLR2B, P30876
# Method: as §1
# [1] = substrate: PPIB, P23284
# Method: as §1
# PSMD1, Q99460 = target: PSMD1, Q99460
# Method: as §1
# RFC2, P35250 = target: RFC2, P35250
# Method: as §1
# XPO1, O14980 = target: XPO1, O14980
# Method: as §1
# COX6C, P09669 = target: COX6C, P09669
# Method: as §1
# DDX42, Q86XP3 = target: DDX42, Q86XP3
# Method: as §1
# FAM98B, Q52LJ0 = target: FAM98B, Q52LJ0
# Method: as §1
# GATAD1, Q8WUU5 = target: GATAD1, Q8WUU5
# Method: as §1
# MRPL27, Q9P0M9 = target: MRPL27, Q9P0M9
# Method: as §1
# NAA15, Q9BXJ9 = target: NAA15, Q9BXJ9
# Method: as §1
# NAP1L1, P55209 = target: NAP1L1, P55209
# Method: as §1
# OLA1, Q9NTK5 = target: OLA1, Q9NTK5
# Method: as §1
# DCD, P81605 = target: DCD, P81605
# Method: as §1
# DDX31, Q9H8H2 = target: DDX31, Q9H8H2
# Method: as §1
# DSTN, P60981 = target: DSTN, P60981
# Method: as §1
# FN1, P02751 = target: FN1, P02751
# Method: as §1
# HERC5, Q9UII4 = target: HERC5, Q9UII4
# Method: as §1
# NELFE, P18615 = target: NELFE, P18615
# Method: as §1
# NTMT1, Q9BV86 = target: NTMT1, Q9BV86
# Method: as §1
# NUP50, Q9UKX7 = target: NUP50, Q9UKX7
# Method: as §1
# PPP4R2, Q9NY27 = target: PPP4R2, Q9NY27
# Method: as §1
# RANBP3, Q9H6Z4 = target: RANBP3, Q9H6Z4
# Method: as §1
# RBM7, Q9Y580 = target: RBM7, Q9Y580
# Method: as §1
# RRS1, Q15050 = target: RRS1, Q15050
# Method: as §1
# TMEM201, Q5SNT2 = target: TMEM201, Q5SNT2
# Method: as §1
# UQCRFS1, P47985 = target: UQCRFS1, P47985
# Method: as §1
# DCTN1, Q14203 = target: DCTN1, Q14203
# Method: as §1
# IPO9, Q96P70 = target: IPO9, Q96P70
# Method: as §1
# LSM12, Q3MHD2 = target: LSM12, Q3MHD2
# Method: as §1
# NSA2, O95478 = target: NSA2, O95478
# Method: as §1
# SF3A3, Q12874 = target: SF3A3, Q12874
# Method: as §1
# CTNNB1, P35222 = target: CTNNB1, P35222
# Method: as §1
# EIF3B, P55884 = target: EIF3B, P55884
# Method: as §1
# IRAK1, P51617 = target: IRAK1, P51617
# Method: as §1
# MAP2K3, P46734 = target: MAP2K3, P46734
# Method: as §1
# NDUFA10, O95299 = target: NDUFA10, O95299
# Method: as §1
# SEC16A, O15027 = target: SEC16A, O15027
# Method: as §1
# SLC30A9, Q6PML9 = target: SLC30A9, Q6PML9
# Method: as §1
# SRSF1, Q07955 = target: SRSF1, Q07955
# Method: as §1
# SRSF10, O75494 = target: SRSF10, O75494
# Method: as §1
# TUBB8, Q3ZCM7 = target: TUBB8, Q3ZCM7
# Method: as §1
# COX6B1, P14854 = target: COX6B1, P14854
# Method: as §1
# DBR1, Q9UK59 = target: DBR1, Q9UK59
# Method: as §1
# DDX49, Q9Y6V7 = target: DDX49, Q9Y6V7
# Method: as §1
# ETFB, P38117 = target: ETFB, P38117
# Method: as §1
# NAA35, Q5VZE5 = target: NAA35, Q5VZE5
# Method: as §1
# NXT1, Q9UKK6 = target: NXT1, Q9UKK6
# Method: as §1
# PRKCSH, P14314 = target: PRKCSH, P14314
# Method: as §1
# RBM34, P42696 = target: RBM34, P42696
# Method: as §1
# SEMG1, P04279 = target: SEMG1, P04279
# Method: as §1
# CTU1, Q7Z7A3 = target: CTU1, Q7Z7A3
# Method: as §1
# DDX28, Q9NUL7 = target: DDX28, Q9NUL7
# Method: as §1
# FAM133B, Q5BKY9 = target: FAM133B, Q5BKY9
# Method: as §1
# PRPF3, O43395 = target: PRPF3, O43395
# Method: as §1
# PSMB6, P28072 = target: PSMB6, P28072
# Method: as §1
# RBM38, Q9H0Z9 = target: RBM38, Q9H0Z9
# Method: as §1
# RBMS1, P29558 = target: RBMS1, P29558
# Method: as §1
# RGPD5, Q99666 = target: RGPD5, Q99666
# Method: as §1
# SNX2, O60749 = target: SNX2, O60749
# Method: as §1
# SNX27, Q96L92 = target: SNX27, Q96L92
# Method: as §1
# SRPK1, Q96SB4 = target: SRPK1, Q96SB4
# Method: as §1
# TIMM44, O43615 = target: TIMM44, O43615
# Method: as §1
binder,measurement,setting,value
B1,PRISMA enrichment of interactor (log2),"CYB5R3, P00387",4.53
same,PRISMA enrichment of interactor (log2),"ECD, O95905",4.4
same,PRISMA enrichment of interactor (log2),"FRYL, O94915",4.17
same,PRISMA enrichment of interactor (log2),"PRDX2, P32119",5.56
B2,PRISMA enrichment of interactor (log2),"CST4, P01036",5.81
same,PRISMA enrichment of interactor (log2),"LSM14A, Q8ND56",5.44
same,PRISMA enrichment of interactor (log2),"MAP4K4, O95819",4.87
same,PRISMA enrichment of interactor (log2),"MGST1, P10620",3.79
same,PRISMA enrichment of interactor (log2),"MRPS18B, Q9Y676",3.97
same,PRISMA enrichment of interactor (log2),"NUB1, Q9Y5A7",4.64
same,PRISMA enrichment of interactor (log2),"NUBP2, Q9Y5Y2",8.3
same,PRISMA enrichment of interactor (log2),"POLR2B, P30876",9.31
same,PRISMA enrichment of interactor (log2),[1],5.37
same,PRISMA enrichment of interactor (log2),"PSMD1, Q99460",9.54
same,PRISMA enrichment of interactor (log2),"RFC2, P35250",6.33
same,PRISMA enrichment of interactor (log2),"XPO1, O14980",5.65
B3,PRISMA enrichment of interactor (log2),"COX6C, P09669",6.46
same,PRISMA enrichment of interactor (log2),"DDX42, Q86XP3",5.8
same,PRISMA enrichment of interactor (log2),"FAM98B, Q52LJ0",5.87
same,PRISMA enrichment of interactor (log2),"GATAD1, Q8WUU5",4.57
same,PRISMA enrichment of interactor (log2),"MRPL27, Q9P0M9",6.91
same,PRISMA enrichment of interactor (log2),"NAA15, Q9BXJ9",6.95
same,PRISMA enrichment of interactor (log2),"NAP1L1, P55209",5.43
same,PRISMA enrichment of interactor (log2),"OLA1, Q9NTK5",4.53
B4,PRISMA enrichment of interactor (log2),"DCD, P81605",7.51
same,PRISMA enrichment of interactor (log2),"DDX31, Q9H8H2",8.56
same,PRISMA enrichment of interactor (log2),"DSTN, P60981",6.27
same,PRISMA enrichment of interactor (log2),"FN1, P02751",4.6
same,PRISMA enrichment of interactor (log2),"HERC5, Q9UII4",4.08
same,PRISMA enrichment of interactor (log2),"NELFE, P18615",6.2
same,PRISMA enrichment of interactor (log2),"NTMT1, Q9BV86",5.76
same,PRISMA enrichment of interactor (log2),"NUP50, Q9UKX7",3.76
same,PRISMA enrichment of interactor (log2),"PPP4R2, Q9NY27",4.87
same,PRISMA enrichment of interactor (log2),"RANBP3, Q9H6Z4",4.59
same,PRISMA enrichment of interactor (log2),"RBM7, Q9Y580",4.91
same,PRISMA enrichment of interactor (log2),"RRS1, Q15050",5.36
same,PRISMA enrichment of interactor (log2),"TMEM201, Q5SNT2",4.47
same,PRISMA enrichment of interactor (log2),"UQCRFS1, P47985",6.98
B5,PRISMA enrichment of interactor (log2),"DCTN1, Q14203",5.03
same,PRISMA enrichment of interactor (log2),"IPO9, Q96P70",7.34
same,PRISMA enrichment of interactor (log2),"LSM12, Q3MHD2",4.91
same,PRISMA enrichment of interactor (log2),"NSA2, O95478",5.5
same,PRISMA enrichment of interactor (log2),"SF3A3, Q12874",4.59
B6,PRISMA enrichment of interactor (log2),"CTNNB1, P35222",4.92
same,PRISMA enrichment of interactor (log2),"EIF3B, P55884",4.68
same,PRISMA enrichment of interactor (log2),"IRAK1, P51617",4.09
same,PRISMA enrichment of interactor (log2),"MAP2K3, P46734",3.67
same,PRISMA enrichment of interactor (log2),"NDUFA10, O95299",4.01
same,PRISMA enrichment of interactor (log2),"SEC16A, O15027",3.98
same,PRISMA enrichment of interactor (log2),"SLC30A9, Q6PML9",5.32
same,PRISMA enrichment of interactor (log2),"SRSF1, Q07955",4.2
same,PRISMA enrichment of interactor (log2),"SRSF10, O75494",4.43
same,PRISMA enrichment of interactor (log2),"TUBB8, Q3ZCM7",4.2
B7,PRISMA enrichment of interactor (log2),"COX6B1, P14854",5.87
same,PRISMA enrichment of interactor (log2),"DBR1, Q9UK59",5.44
same,PRISMA enrichment of interactor (log2),"DDX49, Q9Y6V7",5.47
same,PRISMA enrichment of interactor (log2),"ETFB, P38117",5.97
same,PRISMA enrichment of interactor (log2),"NAA35, Q5VZE5",4.56
same,PRISMA enrichment of interactor (log2),"NXT1, Q9UKK6",5.88
same,PRISMA enrichment of interactor (log2),"PRKCSH, P14314",4.49
same,PRISMA enrichment of interactor (log2),"RBM34, P42696",6
same,PRISMA enrichment of interactor (log2),"SEMG1, P04279",4.38
B8,PRISMA enrichment of interactor (log2),"CTU1, Q7Z7A3",5.37
same,PRISMA enrichment of interactor (log2),"DDX28, Q9NUL7",6.74
same,PRISMA enrichment of interactor (log2),"EIF3B, P55884",4.6
same,PRISMA enrichment of interactor (log2),"FAM133B, Q5BKY9",4.23
same,PRISMA enrichment of interactor (log2),"FAM98B, Q52LJ0",6.31
same,PRISMA enrichment of interactor (log2),"PRPF3, O43395",4.75
same,PRISMA enrichment of interactor (log2),"PSMB6, P28072",4.16
same,PRISMA enrichment of interactor (log2),"RBM38, Q9H0Z9",5.15
same,PRISMA enrichment of interactor (log2),"RBMS1, P29558",4.49
same,PRISMA enrichment of interactor (log2),"RGPD5, Q99666",5.78
same,PRISMA enrichment of interactor (log2),"SNX2, O60749",5.84
same,PRISMA enrichment of interactor (log2),"SNX27, Q96L92",4.34
same,PRISMA enrichment of interactor (log2),"SRPK1, Q96SB4",4.57
same,PRISMA enrichment of interactor (log2),"TIMM44, O43615",4.31

# Shown with tabs: entries from further up
binder	measurement	setting	value
B7	PRISMA enrichment of interactor (log2)	RBM34, P42696	6
same	PRISMA enrichment of interactor (log2)	SEMG1, P04279	4.38
B8	PRISMA enrichment of interactor (log2)	CTU1, Q7Z7A3	5.37
